Binding data for 1 substance are collected here from publication PMC3235111.

No constants are given. Whether binding was seen depends on the method and setting. In cells and extracts the contact can be indirect. Some entries that bind do so weakly or less than the wild type. Where a sequence is shown, tags or fusion partners need not be part of it.

The test addresses T1, human Phosducin-like protein 3 (PhLP3), untagged (human) (UniProt O14530).
T1 sequence: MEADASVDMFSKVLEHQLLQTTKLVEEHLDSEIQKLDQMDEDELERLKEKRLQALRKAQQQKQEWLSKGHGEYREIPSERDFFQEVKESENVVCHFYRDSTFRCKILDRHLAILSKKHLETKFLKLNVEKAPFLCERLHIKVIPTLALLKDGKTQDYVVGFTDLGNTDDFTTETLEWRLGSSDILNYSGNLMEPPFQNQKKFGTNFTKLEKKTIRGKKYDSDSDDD
Nature of the test: co-IP; data not shown; immunoprecipitates from CHOK1 cells transfected with PhLP3 or PhLP3V5 plasmid; blots for CCTβ, CCTα, actin and β-tubulin.

Consider “CCTβ (beta subunit of the chaperonin containing TCP1) (from UniProt G3HZ42 1-535)”, for which the binding entry is “binds”.
